Measurements taken from PMC5312596, “A novel Pfs38 protein complex on the surface of Plasmodium falciparum blood-stage merozoites” (Malaria Journal, 2017).
Results are given in words; binding and its absence hold for the method and conditions named. For some of these results: A result given as binding can be weak or reduced; the word gives no strength.

What was measured:
[1] = target: T1, recombinant Pfs38 (6-Cys domain, aa 153–328) (Plasmodium falciparum) (UniProt Q8I423); assay: ELISA; Pfs38 coated at 2 µg/mL overnight at 4 °C; recombinant partners added at 2, 5, 10 and 20 µg/ml for 2 h; detected with polyclonal antibody against the added protein; both purified
T1 sequence: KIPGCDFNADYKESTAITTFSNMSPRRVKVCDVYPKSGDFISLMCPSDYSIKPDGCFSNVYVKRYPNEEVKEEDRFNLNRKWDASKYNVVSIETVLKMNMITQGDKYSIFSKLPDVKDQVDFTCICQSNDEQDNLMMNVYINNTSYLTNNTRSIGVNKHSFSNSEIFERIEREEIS

[2] = target: PfMLH (Plasmodium falciparum); assay: far-Western, overlay or dot blot; 1-5 µg recombinant protein separated by SDS-PAGE, blotted, denatured and renatured; membrane incubated with 2 µg/mL purified GLURP R2, Pfs38 or SERA-5 in 100 mM NaCl, 20 mM Tris pH 7.6, 0.5 mM EDTA, 10% glycerol, 1 mM DTT, 2 h at RT; detected with antisera to the soluble protein; both purified
[3] = target: recombinant Pfs12 (aa 26–323) (Plasmodium falciparum); assay: as above

PfMLH (Plasmodium falciparum)
binding [1]: no binding

recombinant Pfs12 (aa 26–323) (Plasmodium falciparum) (domain or fragment)
binding [1]: binds

B1: recombinant Pfs38 (6-Cys domain, aa 153–328) (domain or fragment)
chain: KIPGCDFNADYKESTAITTFSNMSPRRVKVCDVYPKSGDFISLMCPSDYSIKPDGCFSNVYVKRYPNEEVKEEDRFNLNRKWDASKYNVVSIETVLKMNMITQGDKYSIFSKLPDVKDQVDFTCICQSNDEQDNLMMNVYINNTSYLTNNTRSIGVNKHSFSNSEIFERIEREEIS
notes: Pfs38, Plasmodium falciparum 6-Cys protein; 6-Cys domain aa 153-328, amplified from a codon-optimised synthetic gene (aa 22-328) and cloned in pET28b between NcoI and XhoI; Cloning in pET28b between NcoI and XhoI would give a C-terminal His6 (surmised); The forward primer adds a few residues (Met-Gly-Ser) before the insert (surmised from the primer); also called rPfs38
binding [2]: no binding (tested: 2 µg/mL)
binding [3]: binds
